Our source for the log values is the supplement of paper PMC7024190.

Where a name gives a salt, the structure may show the parent alone. The list shows a part of the results. This data set is noisy: repeats of one test often differ as much as different tests do.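 Human embryonic kidney cells were transiently transfected with a plasmid bearing a Renilla luciferase gene under the HSV-TK promoter. This first-round screen tests roughly ten thousand compounds for ones that increase reporter output.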

This assay has as its system HEK 293FT. Briefly: log relative Renilla luciferase luminescence (reporter expression vs reference, reference not stated) (log (base not stated)); higher = higher recombinant reporter expression. To be noted: 10 µM; time after transfection 48 h.
Consider `C=CCN1CC[C@]2(C)c3cc(O)ccc3C[C@H]1C2C` (single isomer, unassigned; (+)), for which the log was -0.0164. Regarding `O=c1[nH]c2ccccc2n1CCCN1CCC(n2c(=O)[nH]c3cc(Cl)ccc32)CC1` [Domperidone], the log was -0.04.

Take `O=c1ccc2[nH]cc(C3=CCNCC3)c2[nH]1`: the log was -0.0109. The value for `Oc1ccc2c3c1O[C@H]1c4oc5ccccc5c4C[C@@]4(O)[C@@H](C2)N(CC2CC2)CC[C@]314` [Naltriben mesylate] was -0.089. The value for `CCCN(C/C=C/I)C1CCc2ccc(O)cc2C1` (centres undefined) [7-Hydroxy-PIPAT maleate] was -0.0585; that for `CC(C)(C)OC(=O)c1ncn2c1[C@@H]1CCCN1C(=O)c1c(Br)cccc1-2` [Bretazenil] was 0.125; that for `CN1Cc2ccccc2[C@@H]2c3cccc4[nH]cc(c34)C[C@H]21` was -0.085. On to `CCCN(CCC)[C@@H]1CCc2c(OC)cccc2[C@@H]1C` [(+)-UH 232 maleate], for which the log worked out at 0.0199.

Turning to `CO[C@]12C[C@@H](COC(=O)c3cncc(Br)c3)CN(C)[C@@H]1Cc1cn(C)c3cccc2c13` [Nicergoline], the log turned out to be 0.037. In the case of `c1ccc2c(c1)OCC(C1=NCCN1)O2` (centres undefined) [Idazoxan hydrochloride], the log was found to be 0.0729. As for `C[C@H]1CCC/C=C/[C@@H]2C[C@H](O)C[C@H]2[C@H](O)/C=C/C(=O)O1` [Brefeldin A], the log was -0.0659. The value for `CCCN(CCC)C1CCc2ccc(O)cc2C1` (centres undefined) [7-Hydroxy-DPAT hydrobromide] was -0.0464; that for `C=CCN1CC[C@]23c4c5ccc(O)c4O[C@H]2/C(=N/NC(=O)c2ccccc2)CC[C@@]3(O)[C@H]1C5` [Naloxone benzoylhydrazone] was 0.0477. Take `COc1ccc(CNC(=O)/C=C/c2ccc3[nH]cc(CCN(C)C)c3c2)cc1`: the log was -0.0709.

As to `NC1(c2ccccc2Cl)CCCCC1=O` (centres undefined) [Norketamine hydrochloride], the log was found to be 0.088. On to `CN1CC[C@@H]2CN3CCc4cccc(c43)[C@@H]2C1` [SDZ SER 082 fumarate], for which the log was -0.056.

In the case of `c1ccc2nc(N3CCNCC3)ccc2c1` [Quipazine dimaleate], the log was found to be 0.0692. The value for `c1ccc(CCCCN2CCC(c3ccccc3)CC2)cc1` [4-PPBP maleate] was 0.00638; that for `Cc1nnc2ccc(-c3cccc(C(F)(F)F)c3)nn12` was 0.0174. As to `CCCN[C@@H]1CCc2c(OC)cccc2[C@@H]1C` [(+)-AJ 76 hydrochloride], the log came to 0.128. Regarding `N=C(N)NN` [Aminoguanidine hydrochloride], the log came out at 0.0168.

With `CC(C)(Cc1c[nH]c2ccc(Cl)cc12)NCCOc1ccccc1OCC1CC1`, the log was found to be 0.027. For `CC(=O)N(C)c1cccc(-c2ccnc3c(C(=O)c4cccs4)cnn23)c1` [Indiplon], the log is -0.089. As for `CC(CN)CC(=O)O` (centres undefined) [3-Methyl-GABA], the log came to 0.0993. In the case of `C[C@@]12C(=O)OC(=O)[C@]1(C)[C@H]1CC[C@@H]2O1` [Cantharidin], the log is 0.165. Consider `Oc1ccc2c3c1O[C@H]1c4c(c5ccccc5n4Cc4ccccc4)C[C@@]4(O)C(C2)N(CC2CC2)CC[C@]314` [N-Benzylnaltrindole hydrochloride], for which the log is 0.0656. As for `O=C(O)C1=CCCN(CCOC(c2ccc(C(F)(F)F)cc2)c2ccc(C(F)(F)F)cc2)C1` [CI 966 hydrochloride], the log was -0.0231. Regarding `CCC(Oc1ccc(Cl)cc1)C(=O)OC1C[C@H]2CC[C@@H](C1)N2C` (some centres undefined) [SM-21 maleate], the log was -0.0231. The value for `N[C@@]1(C(=O)O)CC[C@@H](C(=O)O)C1` was 0.131; that for `C(=C\c1ccccc1)/CN1CCN(CCOC(c2ccccc2)c2ccccc2)CC1` was 0.0219. `CCC1(C2=NCCN2)Cc2ccccc2O1` (centres undefined) [Efaroxan hydrochloride]: the log worked out at 0.0438. As for `CCCCCCC[n+]1ccc(-c2cc[n+](CCCCCCC)cc2)cc1` [DHBP dibromide], the figure is -0.168. Consider `c1cc(Cc2cnc[nH]2)ccn1` [Immethridine dihydrobromide], for which the log is -0.244. With `COC(=O)[C@@H](N)CCCNC(=N)N[N+](=O)[O-]` [L-NAME hydrochloride], the log came out at 0.0738. As for `CC(C)C[C@H]1C(=O)N2CCC[C@H]2[C@]2(O)O[C@](NC(=O)[C@@H]3C=C4c5cccc6[nH]c(Br)c(c56)C[C@H]4N(C)C3)(C(C)C)C(=O)N12` [Bromocriptine mesylate], the figure is 0.031; as for `NCCc1c[nH]c2ccc(O)cc12` [Serotonin], 0.0544; as for `Fc1ccc(C(OCCN2CCN(C/C=C/c3ccccc3)CC2)c2ccc(F)cc2)cc1`, 0.146.

Turning to `O=C(O)Cc1cccnc1C(=O)O` [Homoquinolinic acid], the log is -0.0416. Take `O=C1C2CCN(CC2)C1(CO)CO`: the log turned out to be 0.185.
